Measured values published in patent US5741516A, “Sphingosomes for enhanced drug delivery” (priority 1995, dated 1998).
Like-named read-outs stand apart in the source and are kept apart here.

Experiments:
[1] = 15 mg/kg
[2] = i.v.
[3] = i.v.; remark: listed apart in the source
[4] = i.v.; remark: listed apart in the source
[5] = i.v.; remark: listed apart in the source

**Q.** Which Plasma ciprofloxacin ([1]; i.p., 0.25 hrs) does the source give for `O=C(O)c1cn(C2CC2)c2cc(N3CCNCC3)c(F)cc2c1=O` [Free cipro, ciprofloxacin] here?
**A.** 0.43 ± 0.01 μg/100 μl plasma

**Q.** What about the Plasma ciprofloxacin ([1]; i.p., 0.50 hrs) of the same compound?
**A.** 0.18 ± 0.09 μg/100 μl plasma

**Q.** And the Plasma ciprofloxacin ([1]; i.p., 1.00 hrs)?
**A.** 0.07 ± 0.05 μg/100 μl plasma

**Q.** And the Plasma ciprofloxacin ([1]; i.p., 4.00 hrs)?
**A.** 0.06 ± 0.007 μg/100 μl plasma

**Q.** And the “plasma ciprofloxacin levels, i.v. vs i.p. (in words)” value ([1]; i.v. or i.p.)?
**A.** no difference was observed

**Q.** What about the Plasma ciprofloxacin ([1]; i.v., 0.25 hrs) of the same compound?
**A.** 0.35 ± 0.005 μg/100 μl plasma

**Q.** And the Plasma ciprofloxacin ([1]; i.v., 0.50 hrs)?
**A.** 0.20 ± 0.03 μg/100 μl plasma

**Q.** What about the Plasma ciprofloxacin ([1]; i.v., 1.00 hrs) of the same compound?
**A.** 0.11 ± 0.02 μg/100 μl plasma

**Q.** What about the Plasma ciprofloxacin ([1]; i.v., 4.00 hrs) of the same compound?
**A.** 0.05 ± 0.001 μg/100 μl plasma

**Q.** What about the Plasma ciprofloxacin ([1]; i.v., 6.00 hrs) of the same compound?
**A.** 0.03 ± 0.001 μg/100 μl plasma

**Q.** And the “Ciprofloxacin level in plasma” value ([2]; 0.0833 hrs)?
**A.** 0.5996 ± 0.0135 μg cipro/100 μL plasma

**Q.** And the “Ciprofloxacin level in plasma” value ([2]; 0.25 hrs)?
**A.** 0.4096 ± 0.0308 μg cipro/100 μL plasma

**Q.** And the “Ciprofloxacin level in plasma” value ([2]; 0.5 hrs)?
**A.** 0.2720 ± 0.0323 μg cipro/100 μL plasma

**Q.** And the “Ciprofloxacin level in plasma” value ([2]; 1 hrs)?
**A.** 0.1324 ± 0.0008 μg cipro/100 μL plasma

**Q.** What about the “Ciprofloxacin accumulation in the spleen” value ([3]; 0.0833 hrs, 15 mg/kg) of the same compound?
**A.** 16.10 ± 0.191 μg cipro/g tissue

**Q.** What about the “Ciprofloxacin accumulation in the spleen” value ([3]; 0.25 hrs) of the same compound?
**A.** 9.43 ± 0.76 μg cipro/g tissue

**Q.** And the “Ciprofloxacin accumulation in the spleen” value ([3]; 0.5 hrs, 15 mg/kg)?
**A.** 5.48 ± 0.294 μg cipro/g tissue

**Q.** What about the “Ciprofloxacin accumulation in the spleen” value ([3]; 1 hrs, 15 mg/kg) of the same compound?
**A.** 3.49 ± 0.271 μg cipro/g tissue

**Q.** And the “Ciprofloxacin accumulation in the kidney” value ([4]; 0.0833 hrs, 15 mg/kg)?
**A.** 23.5 ± 2.55 μg cipro/g tissue

**Q.** And the “Ciprofloxacin accumulation in the kidney” value ([4]; 0.25 hrs)?
**A.** 13.5 ± 1.47 μg cipro/g tissue

**Q.** What about the “Ciprofloxacin accumulation in the kidney” value ([4]; 0.5 hrs, 15 mg/kg) of the same compound?
**A.** 8.85 ± 1.37 μg cipro/g tissue

**Q.** What about the “Ciprofloxacin accumulation in the kidney” value ([4]; 1 hrs, 15 mg/kg) of the same compound?
**A.** 3.53 ± 0.25 μg cipro/g tissue

**Q.** What about the “Ciprofloxacin accumulation in the lung” value ([5]; 5 min, 15 mg/kg) of the same compound?
**A.** 10.3 ± 0.09 μg cipro/g tissue

**Q.** And the “Ciprofloxacin accumulation in the lung” value ([5]; 0.25 h)?
**A.** 6.29 ± 0.22 μg cipro/g tissue

**Q.** What about the “Ciprofloxacin accumulation in the lung” value ([5]; 0.5 h, 15 mg/kg) of the same compound?
**A.** 3.12 ± 0.35 μg cipro/g tissue

**Q.** What about the “Ciprofloxacin accumulation in the lung” value ([5]; 1 h, 15 mg/kg) of the same compound?
**A.** 2.07 ± 0.29 μg cipro/g tissue
